# From patent US4782898A, “Determining residual oil saturation using carbon 14 labeled carbon dioxide” (priority 1986, dated 1988)
# Where a name gives a salt, the structure may show the parent alone.
# Assay: Applicable temperature range of acid (CO2) generators
# Format: physicochemical
# Details: best estimate of the applicable temperature range for each listed CO2 generator
row,SMILES,Temperature Range [°F.]
1,CC(Cl)C(=O)O (stereo not shown) [2-Chloropropionic acid salt],120 to 150
2,CC(Cl)CC(=O)O (stereo not shown) [3-Chlorobutyric acid salt],80 to 110
3,O=C(O)CCCl [3-Chloropropionic acid salt],100 to 130
4,O=C(O)C(Cl)Cl [DiChloro Acetic acid salt],180 to 250
5,O=C(O)CBr [Mono Bromo Acetic acid salt],140 to 170
6,O=C(O)CCl [Mono Chloro Acetic acid salt],160 to 220
7,O=C(O)c1ccccc1Cl [Ortho Chlorobenzoic acid salt],> 300
